The other results are listed elsewhere or left out.
The sequences below were run against OsWRKY34 (Oryza sativa, UniProt Q0JBA9 1-250) (assay: protein-binding microarray (RPBM); PBS, 2% BSA, 51.3 ng/ul salmon testes DNA, 50 uM zinc acetate, 200 nM TF, 25 C, 1 h; high values mean tight binding). Settings: protein: recombinant; tags: N-terminal polyhistidine and DsRed monomer fusion (pET32a); label: CyDye5-dUTP incorporated in the synthesized complementary strand; 3' TTTTT single-stranded linker to array surface; dsDNA, one strand shown.
Outline: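 Transcription factors were each fused at the N-terminus to a polyhistidine tag plus DsRed and expressed in E. coli BL21-CodonPlus before Ni–NTA purification. Binding to a double-stranded custom Agilent array was carried out with 200 nM protein at 25 °C for 1 h in PBS, 2% BSA, salmon testes DNA and 50 µM zinc acetate. The binding signal is per-feature fluorescence intensity, in arbitrary units, on an Axon 4000B scanner.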

Sequences of proteins named here, by UniProt entry; tags and fusion partners are left off.
UniProt Q0JBA9, entry or part of it: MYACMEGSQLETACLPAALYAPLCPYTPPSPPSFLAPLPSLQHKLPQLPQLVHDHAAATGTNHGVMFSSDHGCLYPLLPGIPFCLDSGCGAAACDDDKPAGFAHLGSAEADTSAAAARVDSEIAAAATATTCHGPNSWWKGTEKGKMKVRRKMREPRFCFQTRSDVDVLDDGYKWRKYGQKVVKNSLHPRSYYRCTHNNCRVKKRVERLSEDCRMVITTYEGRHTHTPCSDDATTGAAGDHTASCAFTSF

In order of rising binding signal:
1. ACACTGTTTGACATTATTTCAGTCGGCATCTCTCCACTAACGGAGTCACCTAGTGCAG  8050 fluorescence intensity (a.u.)
2. ACTTGTCTTTTTAATTTTTTTCCATATTTTTTTTAAATAACGGAGTCACCTAGTGCAG  8100 fluorescence intensity (a.u.)
3. TCCATATAAAATTTGTCTCAATCCGTGTCCATATGAAAAACGGAGTCACCTAGTGCAG  8130 fluorescence intensity (a.u.)
4. CGCCATCAAAATCTCTCCGCATCCAACCAAACAGGTCGACCGGAGTCACCTAGTGCAG  8130 fluorescence intensity (a.u.)
5. GATACAGTTTCGCATTGTCAAGCACAAAATTATCCTCTAACGGAGTCACCTAGTGCAG  8130 fluorescence intensity (a.u.)
6. GAGCCATCTGAACACTTGGACCATAGGCCACCCCTATCCGCGGAGTCACCTAGTGCAG  8150 fluorescence intensity (a.u.)
7. TCTACATGGATATCTATAGCTCTCTCATCCATTGTCTCGTCGGAGTCACCTAGTGCAG  8150 fluorescence intensity (a.u.)
8. GCGCCGCCCGCCTCACCTCACCGCTGAGCCGCACTTCCCCCGGAGTCACCTAGTGCAG  8160 fluorescence intensity (a.u.)
9. GGGCTTCTCAGCTCATCATGTTCACCACTCAGGGCCGAATCGGAGTCACCTAGTGCAG  8170 fluorescence intensity (a.u.)
10. AATGGAGGGAGTATTTTTTTTTTCACACCGCGCGGGAGCGCGGAGTCACCTAGTGCAG  8320 fluorescence intensity (a.u.)
11. AAATTTACTGTTGCCTCTCTTTTATTTTCTTAGGCCCAAGCGGAGTCACCTAGTGCAG  8380 fluorescence intensity (a.u.)
12. TCTTACTATCATTTATCATTTTTTTATGTTTTATCGTTAACGGAGTCACCTAGTGCAG  8460 fluorescence intensity (a.u.)
13. ACCATTTGTTTGAGCTCCGGAACCTTTTCGCCGTCCTATGCGGAGTCACCTAGTGCAG  8460 fluorescence intensity (a.u.)
14. TGTTCTGTGAGAATAGTTTCGTCCGTCTTGTTTTCTCCTGCGGAGTCACCTAGTGCAG  8470 fluorescence intensity (a.u.)
15. GATGTTGCTGTTCAAATTTCTTGTATATCTTCTAAGGCATCGGAGTCACCTAGTGCAG  8480 fluorescence intensity (a.u.)
16. ATCCGTTTTATATTATAAATCATTTGACTTTTTCTATTAGCGGAGTCACCTAGTGCAG  8510 fluorescence intensity (a.u.)
17. TGGCTTTATACATTCTATGTTAGTGGTATATTATGTGGTACGGAGTCACCTAGTGCAG  8530 fluorescence intensity (a.u.)
18. ATTATACTACTCCTGTACTATTTTTCTCGTTTGCCGTGTCCGGAGTCACCTAGTGCAG  8620 fluorescence intensity (a.u.)
19. ACCAACGGCCCGAGTCCGACACACGTCTCACGCACGAGCACGGAGTCACCTAGTGCAG  8700 fluorescence intensity (a.u.)
20. TTTAACCTAAACCACATGTGAATTTCTTCTTATGTATTCCCGGAGTCACCTAGTGCAG  8700 fluorescence intensity (a.u.)
21. ATTTTGTCCCTCAAAGAGACATTCCCTCGTTTTGTGTATGCGGAGTCACCTAGTGCAG  8890 fluorescence intensity (a.u.)
22. GAGATGGTGTGGACTCGTGGTCATGGAGGCGTTGATGCGGCGGAGTCACCTAGTGCAG  8960 fluorescence intensity (a.u.)
23. ACAGTTAAATTTGCTATTTTTGTTTTTACTTGTATAAGTTCGGAGTCACCTAGTGCAG  8980 fluorescence intensity (a.u.)
24. AAGTCCTTAGCACCAATGTTATGGTTGACTTATAAACATCCGGAGTCACCTAGTGCAG  8990 fluorescence intensity (a.u.)
25. AGGTTCCTTTCAGGTCTGGTGCATCGGCATCAGTCTCTCGCGGAGTCACCTAGTGCAG  9020 fluorescence intensity (a.u.)
26. TTCATATCATTCACCATCTGTTCACAATGTAGGATCGTACCGGAGTCACCTAGTGCAG  9040 fluorescence intensity (a.u.)
27. ATCCTTGCTTTGCTGCTGCGTTGTTCATGATTCCCACCAACGGAGTCACCTAGTGCAG  9080 fluorescence intensity (a.u.)
28. TTTTTATCTGCTCCACTTTCTGTTTTTTTTTCCTGGTGAACGGAGTCACCTAGTGCAG  9190 fluorescence intensity (a.u.)
29. TGAGCGTCATTCAGTCAATTCCTACGCTTGTCTCGTTTCACGGAGTCACCTAGTGCAG  9220 fluorescence intensity (a.u.)
30. AAACCCGTGCTCCACCACCGCCTCGTGCAAACCCAACACCCGGAGTCACCTAGTGCAG  9490 fluorescence intensity (a.u.)
31. ACAAGGCAAATCTCTTCATGTTGTTGCATCATTGCGTTCACGGAGTCACCTAGTGCAG  9530 fluorescence intensity (a.u.)
32. TCTAGTTTTTGCAGCCACACTGCCACTCAATGGCTAGACCCGGAGTCACCTAGTGCAG  9650 fluorescence intensity (a.u.)
33. ACAATATGCTACATCAAGGGCCTTATCTTTTCGCTTATACCGGAGTCACCTAGTGCAG  9740 fluorescence intensity (a.u.)
34. TTTCTTCTCCAAGGCGTCCGTGACATTGGCGCCATCCTTCCGGAGTCACCTAGTGCAG  9800 fluorescence intensity (a.u.)
35. GCTAGTTCTATCCTGAGTTTTGTGATCTTGATCTCTTTGACGGAGTCACCTAGTGCAG  10000 fluorescence intensity (a.u.)
36. TCAATAGTTCGGGGTCGAGATATGTGGTAATGTGGTTCATCGGAGTCACCTAGTGCAG  10100 fluorescence intensity (a.u.)
37. CATCGTGCCGCACCCGATTCCTCATCCGCGTCATCTCCACCGGAGTCACCTAGTGCAG  10100 fluorescence intensity (a.u.)
38. GAAGTTCCGGCCCAGAAGGCCATAGTTGCATTTCCATCTGCGGAGTCACCTAGTGCAG  10100 fluorescence intensity (a.u.)
39. CTCAACTTCCATCAGGACCCTTATGCTGAGTATGATTTCTCGGAGTCACCTAGTGCAG  10100 fluorescence intensity (a.u.)
40. GTGCAGTGTAATATGTATCCTCTAGCCTCTTTTTCATTCACGGAGTCACCTAGTGCAG  10200 fluorescence intensity (a.u.)
41. ATTTGTATTATTTATAAGTTGCACTTATCGTTTATTTTCTCGGAGTCACCTAGTGCAG  10200 fluorescence intensity (a.u.)
42. AGGAGAGGCAAAGAAGGTGGGGATGGACGTGTGGGGCCTCCGGAGTCACCTAGTGCAG  10600 fluorescence intensity (a.u.)
43. CTCCGCTTCCACAGCTTTGCTACTAATCCGCGCACTAATTCGGAGTCACCTAGTGCAG  10600 fluorescence intensity (a.u.)
44. AAAACCCTCGCCGCCACCGCCACCGCCTCCGCCGCCGCGGCGGAGTCACCTAGTGCAG  10700 fluorescence intensity (a.u.)
45. ATTTTCTACTCTTTTGGTCCCACTAGTCATAGACTCTTTTCGGAGTCACCTAGTGCAG  10800 fluorescence intensity (a.u.)
46. CGGTCTCTCGCCTTGTCACCTTACTTGCTTGGCTACTACTCGGAGTCACCTAGTGCAG  11400 fluorescence intensity (a.u.)
47. CCATGCCATCCATTCTCTCAAGGTCACAACAGCTGCTTATCGGAGTCACCTAGTGCAG  11500 fluorescence intensity (a.u.)
48. GCAAACGCCCGCTCGCTCCCGTTCGTTTCGTTTCGTTTCCCGGAGTCACCTAGTGCAG  11600 fluorescence intensity (a.u.)
49. GTTCGCTGGTTGCTTGCGTGCTGGTTTGGCTTTGAATTGACGGAGTCACCTAGTGCAG  11700 fluorescence intensity (a.u.)
50. ATGTGGTTTTGTGTCTATATGCATCCTCTGTGTAAACCTTCGGAGTCACCTAGTGCAG  12500 fluorescence intensity (a.u.)
51. ACTGCCGCGAATACTACTCTCCATCCCCGCGTAGACTTCGCGGAGTCACCTAGTGCAG  12900 fluorescence intensity (a.u.)
52. TGTGTTTTTCCTGTGTTTTGCAATCTCTGTTTTACACTTACGGAGTCACCTAGTGCAG  13600 fluorescence intensity (a.u.)
53. GAGGGAGGGAGGTGGAAGCGGAGGCGAGTGGGAGGGTGGGCGGAGTCACCTAGTGCAG  15500 fluorescence intensity (a.u.)
54. GTTTTTTAATAGATAACGCCGTTGACTTTTTTTCACATGTCGGAGTCACCTAGTGCAG  21500 fluorescence intensity (a.u.)

— paper PMC7819943, “Rice protein-binding microarrays: a tool to detect cis-acting elements near promoter regions in rice”
